Test results published in patent US20020155443A1, “Metal binding DNA interactive compounds” (priority 2000, published 2002).

Assay: Picrate extraction, alkali metal ion complex association
Assay type: binding
Conditions: in words; for affinity for alkali metal ions: lithium, sodium, potassium

O=S1(=O)CC#CCOc2ccccc2OCC#CC1 [Compound 2.10]
affinity for alkali metal ions: did not display measurable affinity

O=S1(=O)CC#CCOCCOCCOCCOCC#CC1 [Compound 2.12]
affinity for lithium ions: significant affinity
affinity for alkali metal ions: slight affinity

O=S1(=O)CC#CCOCCOCCOCCOCCOCC#CC1 [Compound 2.46]
affinity for potassium ions versus sodium ions: bound potassium ions with greater affinity than sodium ions

O=S1(=O)CC#CCOCCOCCOCCOCCOCCOCC#CC1 [Compound 2.47]
affinity for lithium ions: slight affinity
affinity for potassium ions versus sodium ions: bound potassium ions slightly better than sodium ions

O=S1(=O)CC#CCOCCOCCOCCOCCOCCOCCOCC#CC1 [Compound 2.48]
affinity for potassium ions versus sodium ions: bound potassium with greater affinity than sodium ions

O=C(OCC1COCCOCCOCCOCCO1)c1ccc(CS(=O)(=O)CC#CCO)cc1 (centres unmarked) [Compound 3.2]
affinity for alkali metal ions: greater affinity for all alkali metal ions versus host 3.1
